Results published in the supplement of paper PMC11150407.
Hit rate of the full screen: of about 2,100 compounds, about 180 (8.6%) showed an effect of 50% or more. The list shows a part of the results.

system: MOLM1 and UCSD/AML1 (averaged); experiment: cell viability relative to DMSO control (POC); higher = less growth inhibition; details: 1 µM; 72 h
Experimental: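 Primary viability screen in the 3q26 EVI1-high AML cell lines MOLM1 and UCSD/AML1 (1.5e3 cells/well, 384-well), compounds at 1 uM for 72 h. ATP CellTiter-Glo read-out given as percent of viable cells over DMSO control (POC), averaged over duplicates. DMSO was the negative control and 5 uM etoposide the positive control. This mapping covers the MicroSource Spectrum and Selleck anticancer libraries (drug names).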

Q: How did the cell viability turn out when C[C@]12CCC(=O)C=C1CC[C@@H]1[C@@H]2[C@@H](O)C[C@@]2(C)[C@H]1CC[C@]2(O)C(=O)COC(=O)CCC(=O)O was run?
A: 85.4%

Q: How did the cell viability turn out when CCOC(=O)[C@H](CCc1ccccc1)N[C@H]1CCc2ccccc2N(CC(=O)O)C1=O was run?
A: 58.5%

Q: With O=C(Nc1c[nH]nc1-c1nc2ccc(CN3CCOCC3)cc2[nH]1)NC1CC1 as the compound, how does the cell viability read?
A: 17.5%

Q: COc1cc(-c2coc3cc(O)c(OC)c(O)c3c2=O)cc(O)c1OC was tested. Which cell viability did it give?
A: 90.5%

Q: Which cell viability does the source give for CCOC(=O)OC(C)OC(=O)[C@@H]1N2C(=O)[C@@H](NC(=O)[C@H](N)c3ccccc3)[C@H]2SC1(C)C (stereo partly drawn) here?
A: 93.4%

Q: Which cell viability does the source give for COc1c2ccoc2nc2c(OC)c(OCC(O)C(C)(C)O)ccc12 (stereo not drawn) here?
A: 90.2%

Q: Which cell viability does the source give for CC[C@H]1OC(=O)[C@H](C)[C@@H](O[C@H]2C[C@@](C)(OC)[C@@H](O)[C@H](C)O2)[C@H](C)[C@@H](O[C@@H]2O[C@H](C)C[C@H](N(C)C)[C@H]2O)[C@](C)(O)C[C@@H](C)/C(=N\OCOCCOC)[C@H](C)[C@@H](O)[C@]1(C)O here?
A: 97.8%

Q: How did the cell viability turn out when CC(=O)N[C@@H](CC(C)C)C(=O)O was run?
A: 93.7%

Q: Nc1nc(=O)c2nc(CNc3ccc(C(=O)N[C@@H](CCC(=O)O)C(=O)O)cc3)cnc2[nH]1 was tested. Which cell viability did it give?
A: 113%

Q: For C=CC[S+]([O-])C[C@H](N)C(=O)O (mixture of isomers), which cell viability is on record?
A: 89.6%

Q: How did the cell viability turn out when O=C([O-])[C@H]1/C(=C/CO)O[C@@H]2CC(=O)N21.[Li+] was run?
A: 90.4%

Q: How did the cell viability turn out when CC(C)CC(=O)Nc1n[nH]c2c1CN(C(=O)C1CCN(C)CC1)C2(C)C was run?
A: 49.4%

Q: COc1ccc(-c2cc(=O)c3c(O)cc(O)cc3o2)cc1O was tested. Which cell viability did it give?
A: 83%

Q: For Nc1nc(Cl)nc2c1ncn2[C@@H]1O[C@H](CO)[C@@H](O)[C@@H]1F [Clofarabine], which cell viability is on record?
A: 6.72%

Q: Which cell viability does the source give for COc1cc2ccc(=O)oc2c(OC)c1OC here?
A: 110%

Q: How did the cell viability turn out when O=C1CN2Cc3c(ccc(Cl)c3Cl)N=C2N1 was run?
A: 97.9%

Q: How did the cell viability turn out when C#CCCCCCCCCCCCC(O)CC(O)CO (stereo not drawn) was run?
A: 55.1%

Q: How did the cell viability turn out when CC(C)NCC(O)COc1ccc(COCCOC(C)C)cc1 (stereo not drawn) was run?
A: 84.9%

Q: Which cell viability does the source give for CN(C)Cc1c(C(=O)NCCOc2ccc(C(=O)NO)cc2)oc2ccccc12 here?
A: 1.01%

Q: How did the cell viability turn out when O=c1cc(-c2ccc(O)cc2)oc2cc(O)cc(O)c12 was run?
A: 98.6%

Q: How did the cell viability turn out when O=C(Cn1ccnc1[N+](=O)[O-])NCCO was run?
A: 94.5%

Q: For CC(=O)OCC(COC(C)=O)OC(C)=O, which cell viability is on record?
A: 102%

Q: For CN(C)CCN(Cc1cccs1)c1ccccn1, which cell viability is on record?
A: 96.2%

Q: With COc1ccc2c(c1)OCc1c-2oc2cc(OC)ccc12 as the compound, how does the cell viability read?
A: 99%

Q: How did the cell viability turn out when COc1ccc([C@H]2COc3c(ccc(O)c3OC)C2)c(OC)c1O was run?
A: 116%

Q: With NC(=O)N1c2ccccc2C=Cc2ccccc21 as the compound, how does the cell viability read?
A: 109%

Q: How did the cell viability turn out when C[C@]12CC[C@@H]3c4ccc(O)cc4CC[C@H]3[C@@H]1CCC2=O [Estrone] was run?
A: 79%

Q: With C[C@]12CC[C@@H]3c4ccc(O)cc4CC[C@H]3[C@@H]1CCC2=O as the compound, how does the cell viability read?
A: 104%
